Data: EP4663661A1 (Hainan Simcere Zaiming Pharmaceutical Co., Ltd., dated 2025)
Results are given in words; binding and its absence hold for the method and conditions named. Some results given as binding are weak or reduced against the parent protein; the word gives no strength. For part of these data: Tags and fused reporters may be left off the sequences shown.

T1: his-tagged human CDH6 extracellular region protein (hCDH6 ECD-his) (human) (UniProt P55285)
T1 sequence: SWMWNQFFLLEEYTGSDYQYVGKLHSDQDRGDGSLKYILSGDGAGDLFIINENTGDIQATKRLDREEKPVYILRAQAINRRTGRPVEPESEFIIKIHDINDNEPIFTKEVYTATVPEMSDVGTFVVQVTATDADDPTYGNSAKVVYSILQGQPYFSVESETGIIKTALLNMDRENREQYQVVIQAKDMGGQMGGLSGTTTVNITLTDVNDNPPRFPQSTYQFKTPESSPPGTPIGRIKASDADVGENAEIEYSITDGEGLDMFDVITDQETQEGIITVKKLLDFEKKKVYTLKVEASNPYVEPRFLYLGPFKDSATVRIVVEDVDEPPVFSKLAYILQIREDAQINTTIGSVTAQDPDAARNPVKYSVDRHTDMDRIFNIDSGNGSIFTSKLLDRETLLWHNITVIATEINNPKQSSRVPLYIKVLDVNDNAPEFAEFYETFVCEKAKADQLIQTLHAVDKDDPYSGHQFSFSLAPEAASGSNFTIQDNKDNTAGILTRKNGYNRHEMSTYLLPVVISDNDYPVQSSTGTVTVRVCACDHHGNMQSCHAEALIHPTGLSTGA


Tests used:
[1] = target: monkey CDH6 protein (cynoCDH6 ECD-his) (monkey (cyno)); experiment: ELISA, antigen coated
[2] = target: T1, his-tagged human CDH6 extracellular region protein (hCDH6 ECD-his) (human); experiment: ELISA, antigen coated
[3] = target: T1, his-tagged human CDH6 extracellular region protein (hCDH6 ECD-his) (human); experiment: SPR Biacore

| Binder | binding [1] | binding [2] | binding [3] |
| --- | --- | --- | --- |
| CHI-CDH6-6 (antibody, human IgG1, kappa, V domains shown) VH: EVQLQQSGPELVKPGDSVKMSCKASGYTFTDYYMAWVRQSHRKSLEWIGYIFPNSGGTDYSQKFKGKATLTVDKSSSTVYMELHSLTSEDSAVYYCARELGADYGDYYAMDHWGQGTSVSVSS VL: DIQMTQSPASLSASVGETVTITCRASENIDSYLAWYQQKQGKSPQLLVYSATLLADGVPSRFSGSGSGTQYSLKINSLKSEDVARYYCQHYYRTPPTFGSGTKLEIKR | binds | binds |  |
| hCDH6-6-H1L1 (antibody, human IgG1, kappa, V domains shown) VH: EVQLVQSGAEVKKPGASVKVSCKASGYTFTDYYMAWVRQAPGQGLEWMGYIFPNSGGTDYSQKFKGRVTMTVDKSTSTVYMELSSLRSEDTAVYYCARELGADYGDYYAMDHWGQGTTVTVSS VL: DIQMTQSPSSLSASVGDRVTITCRASENIDSYLAWYQQKPGKSPKLLLYSATLLADGVPSRFSGSGSGTDYTLTISSLQPEDFATYYCQHYYRTPPTFGQGTKLEIKR |  | binds | binds |
| hCDH6-6-H1L2 (antibody, human IgG1, kappa, V domains shown) VH: EVQLVQSGAEVKKPGASVKVSCKASGYTFTDYYMAWVRQAPGQGLEWMGYIFPNSGGTDYSQKFKGRVTMTVDKSTSTVYMELSSLRSEDTAVYYCARELGADYGDYYAMDHWGQGTTVTVSS VL: DIQMTQSPSSLSASVGDRVTITCRASENIDSYLAWYQQKPGKSPKLLVYSATLLADGVPSRFSGSGSGTDYTLTISSLQPEDFATYYCQHYYRTPPTFGQGTKLEIKR |  | binds | binds |
| CHI-CDH6-10 (antibody, human IgG1, kappa, V domains shown) VH: QVQLQQPGAELVKPGTSVKMSCKASGYTFTSDWIAWVKQRPGQGLEWIGDIYPGSGRTHNNEKFNFKATLTVDTSSNTAYMQLSSLTSEDSAVYFCARPMLGRFDYWGQGTTLTVSS VL: DIVLTQSPASLAVSLGQRATISCRASESVSIHGTHLMHWYQQKPGQPPKLLIYAASNLESGVPARFSGSGSETDFTLNIHPVEEEDAATYFCQQSFEDPFTFGSGTKLEIKR | binds | binds |  |
| hCDH6-1-H1L1 (antibody, human IgG1, kappa, V domains shown) VH: EVQLVQSGAEVKKPGSSVKVSCKASGYTFSNYWMHWVRQAPGQGLEWMGDIDPSHSETHYTQKFKDRVTITVDKSTSTAYMELSSLRSEDTAVYYCARGDLGRFDYWGQGTTVTVSS VL: DIVMTQSPDSLAVSLGERATINCRASESVSIHGTHLMHWYQQKPGQPPKLLIYAASNLESGVPDRFSGSGSETDFTLTISSLQAEDVAVYYCQQSFEDPWTFGGGTKVEIKR |  | binds | binds |
| CHI-CDH6-11 (antibody, human IgG1, kappa, V domains shown) VH: QIQLQQSGPELVKPGASVRISCKASGYTFTDYYITWVKLRPGQGLEWIGWIYPGSVNIKYNEKFKGKATLTVDTSSSTAYMQLNSLTSEDSAVYFCARGGYSWFPYWGQGTLVTVSA VL: NIVMTQSPKSMSMSVGERVTLSCKASENVHTYVSWYQQKPEQSPKLLFYGASTRNTGVPDRFTGSGSATDFTLTISSVQAEDLADYYCGQSYSYPYTFGSGTKLEIKR | binds | binds |  |
| CHI-CDH6-9 (antibody, human IgG1, kappa, V domains shown) VH: QVQLQQPGAELVKPGASVKLSCKASGYTFTGYWMHWVRQRPGQGLEWIGEINPNNGGTNCNEQFKNKATLTVDKSSSTAYMQLSSLTSEDSAVFYCTISFGNYLFFDVWGAGTTVTVSS VL: DIQMTQSPASLAASVGETITITCQASENIYFSLAWYQQKQGKSPQLLIYNANTLEDGVPSRFVGSGSGTQYSMKINSIQPEDTATYFCDQTYDFPWTFGGGTKLEIKR | binds | binds |  |

The remaining lines, values ahead:

| binding [1] | binding [2] | binding [3] | Binder |
| --- | --- | --- | --- |
| binds | binds |  | CHI-CDH6-8 (antibody, human IgG1, kappa, V domains shown) VH: EVQLQQSGPELVKPGDSVKMSCKASGYTFTDYYMAWIKQNHGKSLEWIGYIYPNNGGTDYNQKFRGKATLTVDKSSSAAYMELHSLTSEDSAVYYCAREIGTLYGDYYAMDYWGQGTSVTVSS VL: DIQMTQSPASLSASVGETVTITCRASENIDSYLAWYQQKQGKSPQLLVYTATLLADGVPSRFSGSGSGTQYSLKINSLQSEDVARYYCQHYYSTPPTFGSGTKLEIKR |
|  | binds | binds | hCDH6-6-H2L1 (antibody, human IgG1, kappa, V domains shown) VH: EVQLVQSGAEVKKPGASVKVSCKASGYTFTDYYMAWVRQAPGQGLEWMGYIFPNSGGTDYSQKFKGRVTLTVDKSTSTVYMELSSLRSEDTAVYYCARELGADYGDYYAMDHWGQGTTVTVSS VL: DIQMTQSPSSLSASVGDRVTITCRASENIDSYLAWYQQKPGKSPKLLLYSATLLADGVPSRFSGSGSGTDYTLTISSLQPEDFATYYCQHYYRTPPTFGQGTKLEIKR |
| binds | binds |  | CHI-CDH6-2 (antibody, human IgG1, kappa, V domains shown) VH: EVQLQQSGPELVKPGASVRISCKASGYTFTDYYMNWVKQSHGKSLEWIGDIDPNNANTTYNQKFKGKATLTVDKSSSTAYMELRSLTSEDSAVYSCASFGYDVEWFGYWGQGTLVTVSA VL: QIVLTQSPALMSASPGEKVTMTCSASSSVSYMYWYQQKPRSSPKPWIYLTSNLASGVPARFSGSGSGTSYSLTISSMEAEDAATYYCQQWSSNPFTFGSGTKLEIKR |
| binds | binds |  | CHI-CDH6-13 (antibody, human IgG1, kappa, V domains shown) VH: DVQLQESGPGLVKPSQSLSLTCSVTGYSITKDSYWNWIRQFPGSKLEWMGFISYDGSRHYNPSLKNRISITRDTSKNQFFLQLNSVTTEDTATYYCARRDYADYWGQGTTLTVSS VL: QIVLTQSPALMSAFPGEKVTMTCSATSSVSYIYWYQQKPRSSPKPWIYLTSNLASGVPARFSGSGSGTSYSLTINSLEAEDAATYYCQQWSSIPYTFGGGTKLEIKR |
| binds | binds |  | CHI-CDH6-1 (antibody, human IgG1, kappa, V domains shown) VH: QVQLQQPGAELVRPGSSVKLSCKASGYTFTNYWMHWVKQRPIEGLEWIGDIDPSHSETHYTQKFKDKATLTVDKSSSTAYMQLSSLTSEDSAVYYCARGDLGRFDYWGQGTTLTVSS VL: DIVLTQSPASLAVSLGQRATISCRASESVSIHGTHLMHWYQQKSGQPPKLLIYAASNLESGVPARFSGSGSETDFTFNIHPVEEEDAATYFCQQSFEDPWTFGGGTKLEIKR |
|  | binds | binds | hCDH6-1-H1L2 (antibody, human IgG1, kappa, V domains shown) VH: EVQLVQSGAEVKKPGSSVKVSCKASGYTFSNYWMHWVRQAPGQGLEWMGDIDPSHSETHYTQKFKDRVTITVDKSTSTAYMELSSLRSEDTAVYYCARGDLGRFDYWGQGTTVTVSS VL: DIVMTQSPDSLAVSLGERATINCRASESVSIHGTHLMHWYQQKSGQPPKLLIYAASNLESGVPDRFSGSGSETDFTLTISSLQAEDVAVYYCQQSFEDPWTFGGGTKVEIKR |
|  | binds | binds | hCDH6-1-H1L3 (antibody, human IgG1, kappa, V domains shown) VH: EVQLVQSGAEVKKPGSSVKVSCKASGYTFSNYWMHWVRQAPGQGLEWMGDIDPSHSETHYTQKFKDRVTITVDKSTSTAYMELSSLRSEDTAVYYCARGDLGRFDYWGQGTTVTVSS VL: DIQMTQSPSSLSASVGDRVTITCRASESVSIHGTHLMHWYQQKPGKPPKLLIYAASNLESGVPSRFSGSGSETDFTFTISSLQPEDIATYYCQQSFEDPWTFGGGTKVEIKR |
|  | binds | binds | hCDH6-1-H2L3 (antibody, human IgG1, kappa, V domains shown) VH: EVQLVQSGAEVKKPGSSVKVSCKASGYTFTNYWMHWVRQAPGQGLEWMGDIDPSHSETHYTQKFKDRVTITVDKSTSTAYMELSSLRSEDTAVYYCARGDLGRFDYWGQGTTVTVSS VL: DIQMTQSPSSLSASVGDRVTITCRASESVSIHGTHLMHWYQQKPGKPPKLLIYAASNLESGVPSRFSGSGSETDFTFTISSLQPEDIATYYCQQSFEDPWTFGGGTKVEIKR |
